# Test results: patent US20040224935A1, “Topical antiandrogenic steroids” (Endorecherche, Inc., priority 2003, published 2004)
# Where “and” joins values, the source holds several entries; their conditions need not be identical. Identical values can stand only once. The name of at least one read-out is uncertain.
# Tested on: Shionogi mouse mammary carcinoma cells
# Assay: In vitro androgenic/antiandrogenic activity, DHT-stimulated Shionogi cell number
# Format: cell-based
# Conditions: OH-Flu = 1, higher values preferable
smiles,measurement,value
C[C@@H]1CCC2C3CCc4c(C#N)cccc4C3CC[C@]2(C)[C@H]1O (stereo partly shown) [EM-3803],Shionogis (In Vitro) VS OH-FLU (ratio of Ki of hydroxyflutamide versus tested compound),10.6 and 10.3
